# Reference: PubChem BioAssay AID2685 (National Center for Advancing Translational Sciences (NCATS), 2010)
# The whole screen tested about 320,000 compounds, of which about 2,100 (0.66%) were called active. This list was built around the results that the source calls inconclusive (neither active nor inactive); the mix of calls is not that of the screen. The call rests on the fitted dose curve; in most records, active means well fitted inhibition curve with a large enough effect in the signal ratio, with a control signal flat (not every such curve was filed as active); inconclusive means small, poorly fitted or top-dose-only effect, or effect the other way, or a change in a side signal; inactive means flat fitted curve, though single readings scatter; the % refers to the signal ratio. Where the call is inconclusive, the potency comes from a doubtful curve fit.
# Test: qHTS Assay for Lipid Storage Modulators in Drosophila S3 Cells
# Settings: BODIPY lipid droplet fluorescence, 18-24 h, cells fed with added oleic acid; lipid storage change, negative = inhibition: at 46.1 µM (top of the series) unless noted
# Procedure, shortened: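 Drosophila S3 cells loaded with oleic acid (400 uM, as added) and compounds at several concentrations; lipid droplets imaged by 488-nm laser-scanning cytometry, 500–530 nm intensity and object ratio to cell channel. Percent activity normalized to 20 uM Triacsin C.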
# On the % scale 0 is the no-effect control and ±100 the full control effect; potency means the concentration at half of the fitted maximal effect.
Structure (SMILES),"lipid storage change, negative = inhibition",Potency
O=C(NC1CCN(Cc2ccccc2)CC1)c1ccc(CS(=O)c2ccc(F)cc2)o1 (stereo not drawn),inconclusive: 7.45%,
O=C(NCc1nc2ccccc2[nH]1)C1=C[C@@H](c2csc3ccccc23)C[C@@H](OCCCCO)O1,inconclusive: 13.4%,
Cc1ccc(Cl)c(OCCN2CCCC(C)C2)c1 (stereo not drawn),inconclusive: 3.22%,
N#CC1(C#N)CC(C=O)=C(N)C1(C#N)CC(=O)C12CC3CC(CC(C3)C1)C2 (stereo not drawn),inconclusive: -20.3%,
COc1ccc2c(c1)c(=O)c(C(=O)c1ccc(C)cc1)cn2CC(=O)Nc1ccc(F)cc1,inconclusive: 30.3%,
Cc1cc(C)cc(C(=O)NCCCN2CCOCC2)c1,inconclusive: 6.91%,
Cn1ncc2c(Nc3ccc(Cl)cc3)ncnc21,,"inconclusive: 23.1 µM [falling, single point]"
NC(=O)CC(NC(=O)Cc1ccc(Br)cc1)c1ccc(NCc2cc(F)ccc2F)c([N+](=O)[O-])c1 (stereo not drawn),,"inconclusive: 32.6 µM [falling, single point]"
Cc1cc(Cl)ccc1OCC(=O)NCCCN1CCOCC1,,"inconclusive: 14.6 µM [activator, single point]"
O=C(CCCn1c(=S)[nH]c2ccc(Br)cc2c1=O)NCC1CCCO1 (stereo not drawn),inconclusive: -73%,
CCOC(=O)Cc1csc(NC(=S)NC(=O)c2ccc(F)cc2)n1,,active: 10.3 µM
COc1ccc(N(CC(O)CN2CCOCC2)S(=O)(=O)c2ccccc2)cc1 (stereo not drawn),inconclusive: 17.1%,
COc1ccc(CNC(=O)C(OC(=O)c2ccco2)c2ccc(F)cc2)cc1 (stereo not drawn),,"inconclusive: 0.0065 µM [activator, full curve, poor fit]"
Cc1cc(C)c(C)c(S(=O)(=O)N2CCC(C(=O)N3CCCC3)CC2)c1C,inactive,
O=C(NC1CCCC1)c1ccc(CS(=O)Cc2ccc(Cl)cc2)o1 (stereo not drawn),,"inconclusive: 7.31 µM [falling, partial curve]"
COc1ccc(NC(=O)Nc2nnc(-c3ccco3)s2)cc1,inactive,
CC1=CC=CC2=NC(=O)CC(C)(C(=O)N(CC(=O)NC3CCCC3)c3ccc(F)cc3)N12 (stereo not drawn),inconclusive: 142%,
COc1ccc(N2CCN(CNC(=O)c3ccccc3)CC2)cc1,,"inconclusive: 29.1 µM [activator, single point]"
CCCNC(=O)c1ccc(COc2ccc(C(C)(C)C)cc2)o1,inconclusive: -26.8%,
COc1ccc(NC(=O)CN2C(=O)CSc3ncccc32)cc1,inconclusive: 53%,
O=C(O)c1ccc(Cl)c(S(=O)(=O)Nc2ccccc2C(=O)Nc2ccc(Cl)cc2)c1,inconclusive: -33.5%,
CC1CCN(C(=O)CN2C(=O)c3cccc4cccc(c34)C2=O)CC1,inconclusive: 2.68%,
Cc1cc(C)cc(C(=O)N2CCN=C2SCc2ccc([N+](=O)[O-])cc2)c1,,active: 16.4 µM
CC12CCCCC1c1ccccc1C(=NCC(=O)O)N2 (stereo not drawn),inconclusive: -11.8%,
Cc1ccc(OCC(O)CN2CCN(c3ccccn3)CC2)c(C)c1 (stereo not drawn),inconclusive: 13.3%,
N#CC1(c2ccccc2)CCCN1C(=O)c1ccc(Br)o1 (stereo not drawn),inconclusive: 20.4%,

# A run of entries from the list above, for reference:
Structure (SMILES),"lipid storage change, negative = inhibition",Potency
Cc1cc(C)c(C)c(S(=O)(=O)N2CCC(C(=O)N3CCCC3)CC2)c1C,inactive,
O=C(NC1CCCC1)c1ccc(CS(=O)Cc2ccc(Cl)cc2)o1 (stereo not drawn),,"inconclusive: 7.31 µM [falling, partial curve]"
COc1ccc(NC(=O)Nc2nnc(-c3ccco3)s2)cc1,inactive,
CC1=CC=CC2=NC(=O)CC(C)(C(=O)N(CC(=O)NC3CCCC3)c3ccc(F)cc3)N12 (stereo not drawn),inconclusive: 142%,

# (continued)

Structure (SMILES),"lipid storage change, negative = inhibition",Potency
COc1ncccc1-c1nnn(-c2ccc(Cl)c(Cl)c2)n1,inconclusive: 13.7%,
C=CCN1C(=S)CC(c2ccccc2)=Nc2ccccc21,inconclusive: 190%,
CCCc1nc2ccc(NC(=O)NCCC(=O)OCC)cc2c(=O)n1Cc1ccc(Cl)cc1,inconclusive: -20.3%,
CCOC(=O)N1CCN(C(=O)CN(c2ccc(C)c(C)c2)S(=O)(=O)c2ccccc2)CC1,inconclusive: 86.2%,
CCOc1ccc(N2C=Nc3ccc(OCC)cc3C2)cc1,inconclusive: -30.3%,
CCCCn1c(N)c(N(CC)C(=O)c2cccc(C)c2)c(=O)[nH]c1=O,,"inconclusive: 0.231 µM [activator, single point]"
COc1ccc(/C=C2\CCCC3C2=NN(C(=O)CSc2ncn[nH]2)C3c2ccc(OC)cc2)cc1 (stereo not drawn),,"inconclusive: 29.1 µM [falling, single point]"
COc1ccc(S(=O)(=O)NNC(=O)c2ccc([N+](=O)[O-])cc2)cc1,inconclusive: 28.3%,
Cc1ccc(S(=O)(=O)N2CCCCC2)cc1NC(=O)c1nn(C)c(=O)c2ccccc12,inconclusive: -2.91%,
COc1cc2c(cc1OC)-c1nc3ccccc3c(=O)n1C(C)(C)C2,,"inconclusive: 1.46 µM [rising, full curve]"
Cc1cc(NS(=O)(=O)Cc2ccccc2)no1,inconclusive: -46.6%,
Cc1ccc(Nc2nnc(SCC(=O)NC3CC3)s2)cc1,inconclusive: -4.79%,
O=C(N/N=C/c1cccc2ccccc12)c1cc2ccccc2o1,,"inconclusive: 29.1 µM [rising, single point]"
COc1ccc(Cc2nc3ccc(C(=O)NCCCSC)cc3o2)cc1OC,inconclusive: -25.4%,
Cc1cc2ccccc2c(=O)n1CC(=O)NCCC1=CCCCC1,inconclusive: 21.4%,
CCOc1ccc(C(=O)Cn2cnnc2C#N)cc1,inconclusive: 10%,
Cc1nc(SCC(=O)NCc2ccco2)[nH]c(=O)c1C,inconclusive: -13.5%,
CC(C(=O)Nc1ccccc1)N(c1cccc(Cl)c1)S(C)(=O)=O (stereo not drawn),inconclusive: 44.4%,
COCCn1nnnc1CN1C2CCCC1CC(NC(C)=O)C2 (stereo not drawn),,"inconclusive: 25.9 µM [falling, single point]"
CCCc1nnc2c(N(C)S(=O)(=O)c3ccc(C)cc3)nc3ccccc3n12,,"inconclusive: 1.84 µM [activator, partial curve, poor fit]"
COC(=O)c1cccc(NC(=O)C2COc3ccccc3O2)c1 (stereo not drawn),,"inconclusive: 0.58 µM [falling, full curve, poor fit]"
CCCSc1nnc(NC(=O)Cc2ccc(OC)c(OC)c2)s1,inconclusive: -2.45%,
CC(=O)c1cn(CCOc2ccccc2C)c2ccccc12,,"inconclusive: 29.1 µM [falling, single point]"
COc1nccnc1NS(=O)(=O)c1ccc(NC(=O)c2ccccc2Br)cc1,,"inconclusive: 6.51 µM [activator, single point]"
CC(C)c1nc(SCC(=O)NC(=O)NC(C)(C)C)n[nH]1,inconclusive: -1.31%,

Structure (SMILES),"lipid storage change, negative = inhibition",Potency
Cc1cc(C)cc(NC(=S)Nc2ccccn2)c1,inconclusive: 23.5%,
COc1cc(OC)cc(-n2nnnc2SCC(=O)NC2CCCC2)c1,,"inconclusive: 6.51 µM [rising, single point]"
C=CCn1c(C)c(C(C)=O)c(N2CCN(c3ccccc3)CC2)nc1=S,inactive,
CCOC(=O)c1c(C)[nH]c(C(=O)CN2C(=O)NC(C)(c3ccc4ccccc4c3)C2=O)c1C (stereo not drawn),inconclusive: -24.8%,
Cn1cc(S(=O)(=O)N2CCCC2)cc1C(=O)NCc1ccccc1,inconclusive: -15.4%,
Nc1nc(-c2nonc2N)no1,inconclusive: -29.5%,
O=C(NC1CCN(C(=O)Nc2ccccc2Cl)CC1)c1ccco1,,"inconclusive: 5.17 µM [falling, single point]"
CCn1nc(C)c(Br)c1-c1nc(-c2ccc(C)cc2)no1,inconclusive: 4.12%,
Cc1ccc2c(C(=O)CCl)c(C)[nH]c2c1,inconclusive: -9.27%,
COc1cnc(-c2ccccn2)nc1Oc1ccccc1Cl,inconclusive: 48.4%,
CC(=O)O[C@H]1C[C@@]2(C)[C@@H](C[C@@H](O)[C@H]3[C@@]4(C)CC[C@@H](O)[C@@H](C)[C@@H]4CC[C@@]32C)/C1=C(\CCC=C(C)C)C(=O)O,inconclusive: 17.4%,
O=C(COc1cccc(C(F)(F)F)c1)NCC(c1cccs1)N1CCOCC1 (stereo not drawn),,"inconclusive: 2.91 µM [activator, single point]"
O=C(Cc1cccs1)N1CCN(c2nc(-c3ccc(Cl)cc3)cs2)CC1,inconclusive: 23.4%,
C=CCNC(=O)c1c(N)n(-c2ccc3c(c2)OCO3)c2nc3ccccc3nc12,inconclusive: 55.9%,
CCN(CC)CCNC(=O)Cn1cnc2sc(C)c(S(=O)(=O)N3CCC(C)CC3)c2c1=O,inconclusive: 96.3%,
CCCCCCn1c(N2CCN(c3ccccc3)CC2)nc2c1c(=O)n(C)c(=O)n2C,,"inconclusive: 1.84 µM [activator, partial curve]"
COc1ccccc1NC(=O)NCC1CC1(Cl)Cl (stereo not drawn),,"inconclusive: 29.1 µM [falling, single point]"
O=C(OCC#CCSc1nnc(-c2ccc([N+](=O)[O-])cc2)o1)c1cccs1,,"inconclusive: 14.6 µM [falling, partial curve, poor fit]"
CC1CCN(C(=O)c2ccc(S(=O)(=O)N3CCCC3)cc2)CC1,inconclusive: 18.2%,
O=C(O)C1CCCCC1C(=O)NCc1ccccn1 (stereo not drawn),,"inconclusive: 29.1 µM [rising, single point]"
O=C1OCC2=C1C(c1ccccc1)CC(=O)N2c1ccc(F)cc1 (stereo not drawn),inconclusive: 6.88%,
Cn1c(=O)c2c(-c3ccccc3)n(-c3ccccc3O)cc2n(C)c1=O,inconclusive: 10.7%,
O=C(N/N=C/C(Br)=C/c1ccccc1)c1ccc([N+](=O)[O-])cc1,inconclusive: -25.3%,
CCOC(=O)c1c(NC(=O)C2C3C=CC(CC3)C2C(=O)O)sc(C)c1CC (stereo not drawn),inconclusive: -6.75%,
COC(=O)c1c(-c2cccnc2)csc1NC(=O)c1cc(C)on1,inconclusive: 4.59%,
COCCN1CCN(C(=O)c2ccc3oc(CCc4ccccc4)nc3c2)CC1,,"inconclusive: 23.1 µM [activator, single point]"

# Complete entries, looked up by structure:
# COCCN1CCN(C(=O)c2ccc3oc(CCc4ccccc4)nc3c2)CC1 is entered as Potency: inconclusive: 23.1 µM [activator, single point]
# CC12CCCCC1c1ccccc1C(=NCC(=O)O)N2 (stereo not drawn) is entered as lipid storage change, negative = inhibition: inconclusive: -11.8%
